Assay results reported in paper PMC4657330, “Rac1 augments Wnt signaling by stimulating β-catenin–lymphoid enhancer factor-1 complex assembly independent of β-catenin nuclear import” (Journal of Cell Science, 2015).
Changes are numbered by the printed parent chain. In names and notes the source's numbering stands. Results are given in words; binding and its absence hold for the method and conditions named. Binding seen in cells or lysates may run through a third protein. Some entries that bind do so weakly or less than the wild type. Each block holds one molecule with its values, some of them ahead of it.

By UniProt entry, the sequences of proteins in these tests, tags left out.
UniProt Q9UJU2: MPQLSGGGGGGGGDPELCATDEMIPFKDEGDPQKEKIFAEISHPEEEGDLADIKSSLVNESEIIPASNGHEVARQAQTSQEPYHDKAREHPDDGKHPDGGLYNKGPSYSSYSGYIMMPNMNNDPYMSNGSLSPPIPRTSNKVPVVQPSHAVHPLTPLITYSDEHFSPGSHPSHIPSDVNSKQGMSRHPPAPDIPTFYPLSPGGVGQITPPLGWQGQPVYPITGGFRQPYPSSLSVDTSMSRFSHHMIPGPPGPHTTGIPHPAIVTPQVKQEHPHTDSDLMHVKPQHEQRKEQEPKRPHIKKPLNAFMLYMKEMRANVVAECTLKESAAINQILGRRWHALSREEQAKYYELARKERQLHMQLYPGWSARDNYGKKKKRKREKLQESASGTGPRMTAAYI
UniProt P27782: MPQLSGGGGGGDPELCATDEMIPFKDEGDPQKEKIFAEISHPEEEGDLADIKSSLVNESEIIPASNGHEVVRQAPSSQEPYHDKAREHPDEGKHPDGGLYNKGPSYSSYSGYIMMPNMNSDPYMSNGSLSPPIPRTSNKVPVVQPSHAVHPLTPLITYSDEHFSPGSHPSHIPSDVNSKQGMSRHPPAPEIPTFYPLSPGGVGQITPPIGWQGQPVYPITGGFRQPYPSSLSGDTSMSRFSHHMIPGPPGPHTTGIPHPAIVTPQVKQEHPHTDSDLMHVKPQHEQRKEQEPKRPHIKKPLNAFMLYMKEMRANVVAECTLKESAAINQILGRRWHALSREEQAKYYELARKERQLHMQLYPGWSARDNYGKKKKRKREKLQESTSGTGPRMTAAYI

What was measured:
HA-tagged LEF-1 [1] = target: T1, HA-tagged LEF-1 (UniProt Q9UJU2 1-399); assay: co-IP; HEK293 total lysates, GFP-β-catenin and HA-LEF1 transiently expressed; IP by anti-HA antibody; cells untreated or treated for 6 h with NSC23766 and/or LiCl
T1 construct: LEF-1 (lymphoid enhancer factor 1); written both HA-LEF-1 and LEF-1-HA; also called pHA-LEF-1; HA-LEF-1; source: HEK293, transfected, in lysate; NIH 3T3, transfected, in lysate and in fixed cells

[2] = target: LEF-1 (endogenous, NIH 3T3 cells) (mouse (endogenous in NIH 3T3)) (UniProt P27782); assay: proximity ligation; PLA of myc-tagged β-catenin constructs with endogenous LEF-1; unpublished data
HA-tagged LEF-1 [3] = target: T1, HA-tagged LEF-1; assay: proximity ligation; Duolink in situ PLA on fixed NIH 3T3 cells co-transfected with myc-tagged β-catenin constructs and pHA-LEF-1; anti-myc and anti-HA antibodies
HA-tagged LEF-1 [4] = target: T1, HA-tagged LEF-1; assay: co-IP; NIH 3T3 lysates, pLEF-1-HA co-transfected with pβ-catenin-myc constructs; IP with HA mAb or isotype control IgG, blot with anti-myc; densitometry over three independent experiments

- binding (HA-tagged LEF-1 [1]): binds
Molecule: GFP-β-catenin (from UniProt P35222 1-781)

- binding [2]: binds
- binding (HA-tagged LEF-1 [3]): binds
- binding (HA-tagged LEF-1 [4]): binds
Molecule: myc-tagged β-catenin wild-type (from UniProt P35222 1-781)

- binding [2]: binds
- binding (HA-tagged LEF-1 [3]): binds
B1: myc-tagged β-catenin S191A (natural protein, UniProt P35222 1-781, looked up)
chain: MATQADLMELDMAMEPDRKAAVSHWQQQSYLDSGIHSGATTTAPSLSGKGNPEEEDVDTSQVLYEWEQGFSQSFTQEQVADIDGQYAMTRAQRVRAAMFPETLDEGMQIPSTQFDAAHPTNVQRLAEPSQMLKHAVVNLINYQDDAELATRAIPELTKLLNDEDQVVVNKAAVMVHQLSKKEASRHAIMRAPQMVSAIVRTMQNTNDVETARCTAGTLHNLSHHREGLLAIFKSGGIPALVKMLGSPVDSVLFYAITTLHNLLLHQEGAKMAVRLAGGLQKMVALLNKTNVKFLAITTDCLQILAYGNQESKLIILASGGPQALVNIMRTYTYEKLLWTTSRVLKVLSVCSSNKPAIVEAGGMQALGLHLTDPSQRLVQNCLWTLRNLSDAATKQEGMEGLLGTLVQLLGSDDINVVTCAAGILSNLTCNNYKNKMMVCQVGGIEALVRTVLRAGDREDITEPAICALRHLTSRHQEAEMAQNAVRLHYGLPVVVKLLHPPSHWPLIKATVGLIRNLALCPANHAPLREQGAIPRLVQLLVRAHQDTQRRTSMGGTQQQFVEGVRMEEIVEGCTGALHILARDVHNRIVIRGLNTIPLFVQLLYSPIENIQRVAAGVLCELAQDKEAAEAIEAEGATAPLTELLHSRNEGVATYAAAVLFRMSEDKPQDYKKRLSVELTSSLFRTEPMAWNETADLGLDIGAQGEPLGYRQDDPSYRSFHSGGYGQDALGMDPMMEHEMGGHHPGADYPVDGLPDLGHAQDLMDGLPPGDSNQLAWFDTDL
notes: from the Long laboratory (Wu et al., 2008); also called pmyc-β-catenin-S191A; source: NIH 3T3, transfected, in lysate and in fixed cells

- binding [2]: binds
- binding (HA-tagged LEF-1 [3]): binds
B2: myc-tagged β-catenin S605A (natural protein, UniProt P35222 1-781, looked up)
chain: B1 chain with A191S, S605A
notes: from the Long laboratory (Wu et al., 2008); also called pmyc-β-catenin-S605A; source: NIH 3T3, transfected, in lysate and in fixed cells
